From publication PMC7916142 come the findings set out here.

Sequences of proteins named here, by UniProt entry; tags and fusion partners are left off. Residues count along the entry.
UniProt Q924X6, residues 29-996: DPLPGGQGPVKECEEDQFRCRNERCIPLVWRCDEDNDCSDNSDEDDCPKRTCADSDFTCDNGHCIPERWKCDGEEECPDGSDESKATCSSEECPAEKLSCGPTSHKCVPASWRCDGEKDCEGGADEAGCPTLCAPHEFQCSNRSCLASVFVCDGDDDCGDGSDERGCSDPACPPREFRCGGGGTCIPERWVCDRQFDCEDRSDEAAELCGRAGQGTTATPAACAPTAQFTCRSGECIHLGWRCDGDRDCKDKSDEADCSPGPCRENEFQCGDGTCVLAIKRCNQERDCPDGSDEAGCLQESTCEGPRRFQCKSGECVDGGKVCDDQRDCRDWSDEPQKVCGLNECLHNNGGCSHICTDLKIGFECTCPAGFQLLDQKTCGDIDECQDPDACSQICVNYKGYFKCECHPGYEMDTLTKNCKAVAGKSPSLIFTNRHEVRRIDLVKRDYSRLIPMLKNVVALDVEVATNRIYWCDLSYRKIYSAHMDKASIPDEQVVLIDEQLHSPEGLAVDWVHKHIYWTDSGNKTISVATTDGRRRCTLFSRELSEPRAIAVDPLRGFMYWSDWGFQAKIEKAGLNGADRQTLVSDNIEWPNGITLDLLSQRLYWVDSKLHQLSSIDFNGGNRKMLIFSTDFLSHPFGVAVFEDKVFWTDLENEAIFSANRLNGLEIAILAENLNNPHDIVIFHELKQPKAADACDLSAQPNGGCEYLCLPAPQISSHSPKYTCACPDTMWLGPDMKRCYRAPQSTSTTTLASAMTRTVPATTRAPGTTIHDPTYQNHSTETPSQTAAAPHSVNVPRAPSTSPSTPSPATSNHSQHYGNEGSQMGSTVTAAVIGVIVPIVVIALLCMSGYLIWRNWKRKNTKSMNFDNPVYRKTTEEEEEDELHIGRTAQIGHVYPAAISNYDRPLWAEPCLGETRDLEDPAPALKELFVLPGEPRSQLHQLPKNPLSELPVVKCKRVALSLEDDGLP

Assay [1] deals with epidermal growth factor receptor (EGFR), expressed in HEK293 cells (UniProt P00533). In words: co-IP; extracts of transiently transfected HEK293 cells (NP-40 lysis buffer: 150 mM NaCl, 1% NP-40, 10% glycerol, 20 mM Tris pH 7.4); 400-500 ug protein, 1 h at 4 °C with anti-EGFR or anti-ApoER2 (Ab 186), then Protein A Sepharose; Dab1 detected by blot (Ab D4); unrelated IgG as control.

In assay [2] the target is apolipoprotein E receptor 2 (ApoER2), expressed in HEK293 cells (UniProt Q924X6). The assay is described as above.

These are yes or no findings as the source states them, for the method shown. In cells and extracts the contact can be indirect. Some results given as binding are weak or reduced against the parent protein; the word gives no strength.

B1: Disabled 1 (Dab1), Dab1_555, expressed in HEK293 cells (protein, UniProt P97318-2 1-555)
chain: MSTETELQVAVKTSAKKDSRKKGQDRSEATLIKRFKGEGVRYKAKLIGIDEVSAARGDKLCQDSMMKLKGVVAGARSKGEHKQKIFLTISFGGIKIFDEKTGALQHHHAVHEISYIAKDITDHRAFGYVCGKEGNHRFVAIKTAQAAEPVILDLRDLFQLIYELKQREELEKKAQKDKQCEQAVYQTILEEDVEDPVYQYIVFEAGHEPIRDPETEENIYQVPTSQKKEGVYDVPKSQPVSAVTQLELFGDMSTPPDITSPPTPATPGDAFLPSSSQTLPGSADVFGSMSFGTAAVPSGYVAMGAVLPSFWGQQPLVQQQIAMGAQPPVAQVIPGAQPIAWGQPGLFPATQQAWPTVAGQFPPAAFMPTQTVMPLAAAMFQGPLTPLATVPGTNDSARSSPQSDKPRQKMGKESFKDFQMVQPPPVPSRKPDQPSLTCTSEAFSSYFNKVGVAQDTDDCDDFDISQLNLTPVTSTTPSTNSPPTPAPRQSSPSKSSASHVSDPTADDIFEEGFESPSKSEEQEAPDGSQASSTSDPFGEPSGEPSGDNISPQDGS
Regarding B1, the binding result in assay [1] and in assay [2] was “binds” in each case.
